Assay results as given in paper PMC3949306.
Results are given in words; binding and its absence hold for the method and conditions named. In cells and extracts the contact can be indirect. A result given as binding can be weak or reduced; the word gives no strength. For part of these data: Sequences can lack the tags named with a protein.

Protein sequences, listed by entry. Tags and fused reporters are not part of them. Lines headed by an entry give the natural chain unless they say otherwise; changes in a name come on top.
UniProt Q15173: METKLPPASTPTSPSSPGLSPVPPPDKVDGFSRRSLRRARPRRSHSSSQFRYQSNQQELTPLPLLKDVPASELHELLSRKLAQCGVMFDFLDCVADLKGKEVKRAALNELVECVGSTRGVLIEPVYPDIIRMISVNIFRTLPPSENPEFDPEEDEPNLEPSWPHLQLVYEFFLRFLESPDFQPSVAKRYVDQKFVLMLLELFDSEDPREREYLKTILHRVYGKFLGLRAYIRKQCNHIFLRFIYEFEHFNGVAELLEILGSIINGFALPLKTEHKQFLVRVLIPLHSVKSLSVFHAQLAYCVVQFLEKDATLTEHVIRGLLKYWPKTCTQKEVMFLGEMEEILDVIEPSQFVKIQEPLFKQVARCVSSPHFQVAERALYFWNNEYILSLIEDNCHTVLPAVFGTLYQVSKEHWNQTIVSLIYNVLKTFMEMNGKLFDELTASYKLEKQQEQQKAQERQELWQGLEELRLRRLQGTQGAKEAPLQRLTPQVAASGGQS
UniProt P67775: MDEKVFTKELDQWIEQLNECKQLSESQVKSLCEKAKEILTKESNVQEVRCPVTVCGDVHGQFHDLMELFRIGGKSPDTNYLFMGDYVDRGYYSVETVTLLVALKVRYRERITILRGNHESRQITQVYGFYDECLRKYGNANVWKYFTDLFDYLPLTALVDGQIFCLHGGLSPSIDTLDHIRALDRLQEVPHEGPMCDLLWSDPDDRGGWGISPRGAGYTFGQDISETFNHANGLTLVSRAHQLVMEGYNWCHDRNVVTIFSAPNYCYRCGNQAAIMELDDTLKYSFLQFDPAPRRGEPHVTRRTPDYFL

Key:
FLAG-tagged B55δ = target: T1, FLAG-tagged B55δ (UniProt Q66LE6); experiment: co-IP; FLAG immune complexes (FLAG affinity beads) from lysates of HEK293 cells transfected with FLAG-tagged regulatory subunits; silver-stained SDS-PAGE and Western blot
T1 sequence: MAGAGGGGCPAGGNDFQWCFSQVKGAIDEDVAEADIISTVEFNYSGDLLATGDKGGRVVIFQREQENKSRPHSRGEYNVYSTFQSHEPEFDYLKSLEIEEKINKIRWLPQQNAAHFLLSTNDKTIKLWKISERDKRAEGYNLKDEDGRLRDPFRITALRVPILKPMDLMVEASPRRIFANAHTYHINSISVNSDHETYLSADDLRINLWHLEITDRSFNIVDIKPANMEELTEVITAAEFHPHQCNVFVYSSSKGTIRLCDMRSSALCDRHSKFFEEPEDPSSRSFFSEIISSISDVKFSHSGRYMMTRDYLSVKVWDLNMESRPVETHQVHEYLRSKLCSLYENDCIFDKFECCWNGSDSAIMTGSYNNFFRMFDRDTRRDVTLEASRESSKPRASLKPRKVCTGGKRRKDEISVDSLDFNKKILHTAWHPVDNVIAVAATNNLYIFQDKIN

FLAG-tagged B56β = FLAG-tagged B56β (UniProt Q15173); experiment: as above

binding (FLAG-tagged B55δ) | binding (FLAG-tagged B56β) | Substance
binds | – | PP2A A (structural) subunit (human (endogenous in HEK293))
binds | binds | PP2A C (catalytic) subunit (from UniProt P67775)
